Measurements taken from PubChem BioAssay AID328 (DTP/NCI, 2004).
The list does not hold the whole screen: it gathers tests that were run many times, whatever their T/C, doses with no T/C, and many T/C values between a quarter and a half above the control. Other doses and runs of a compound stand elsewhere. T/C: endpoint of the treated group in % of that of the vehicle group. Some doses have a count of surviving animals in place of a T/C: the source files T/C as zero there, which appears to mark a toxic dose or a test without result, not a measured value. Some survivor counts are full or nearly so, which does not show that the dose was tolerated: the source hardly ever lists a survival T/C far under the control, and the zero likely stands for such cases as well. Counts of survivors are from the toxicity check (mostly the fifth day) where no day follows; animals may have died later. Schedules are NCI's codes, taken here to give the interval after Q, in days (D) or hours (H), and the number of doses after X. Some entries were tested several times; the results are listed from low to high. Marks such as (2×) count equal records among those shown. Where survival is the endpoint, this PubChem deposit counts one and a half times the control or more as active, and values a quarter to a half above the control carry no call in these data; other NCI protocols may use other cut-offs. Some T/C values are followed by the survivors on the day toxicity was checked, most often the fifth; without a count, all were alive then.

System: BDF1 mice, P388 leukemia ip, median survival T/C
Test: NCI In Vivo Anticancer Drug Screen. Data for tumor model P388 Leukemia (intraperitoneal) in B6D2F1 (BDF1) mice
Settings: T/C endpoint: median survival time, higher T/C = longer survival
Method in brief: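 Mice carrying the transplantable tumour receive compound or vehicle. Survival is followed in each arm, and the treated measure is divided by the vehicle measure.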

[1] = dose: 200.0 mg/kg/injection, schedule: Q01DX001 (ip), vehicle: Klucel (hydroxypropylcellulose) (HPC)
[2] = dose: 200.0 mg/kg/injection, schedule: Q01DX009 (ip), vehicle: Klucel (hydroxypropylcellulose) (HPC)
[3] = dose: 400.0 mg/kg/injection, schedule: Q01DX001 (ip), vehicle: Klucel (hydroxypropylcellulose) (HPC)
[4] = dose: 400.0 mg/kg/injection, schedule: Q04DX002 (ip), vehicle: Klucel (hydroxypropylcellulose) (HPC)
[5] = dose: 400.0 mg/kg/injection, schedule: Q04DX003 (ip), vehicle: Klucel (hydroxypropylcellulose) (HPC)

CC(=O)NNC(=O)c1ccccn1
survivor count (dose: 100.0 mg/kg/injection, schedule: Q04DX003 (ip), vehicle: Klucel (hydroxypropylcellulose) (HPC)): 3 of 3 | survivor count (dose: 150.0 mg/kg/injection, schedule: Q01DX009 (ip), vehicle: water): 0 of 6 | T/C [1]: 88, 91, 92, 94 (2×), 95, 98, 99, 100 (6×), 101 (3×), 102, 104 (2×), 106, 108, 109, 110 (2×), 111, 112, 118, 120 % of control | survivor count [1]: 6 of 6 | T/C (dose: 200.0 mg/kg/injection, schedule: Q01DX005 (ip), vehicle: Klucel (hydroxypropylcellulose) (HPC), evaluated on day 30): 88, 92, 92 [5 of 6 alive], 95 [2 of 3 alive], 96 [5 of 6 alive], 97, 98 [5 of 6 alive], 99, 100, 100 [5 of 6 alive], 101, 105 (2×), 107, 109, 114, 114 [2 of 3 alive], 116, 116 [5 of 6 alive], 117, 121, 139 % of control | T/C (dose: 200.0 mg/kg/injection, schedule: Q01DX005 (ip), vehicle: Klucel (hydroxypropylcellulose) (HPC), evaluated on day 35): 105 and 108 % of control [5 of 6 alive] | survivor count (dose: 200.0 mg/kg/injection, schedule: Q01DX005 (ip), vehicle: Klucel (hydroxypropylcellulose) (HPC)): 0 of 3, 1 of 3, 3 of 6, 3 of 3, 6 of 6 | T/C [2]: 86, 88 [5 of 6 alive], 90, 92 [2 of 3 alive], 92 [5 of 6 alive], 94, 95, 96, 97 (2×), 98, 100 (2×), 101, 102, 103, 106, 107, 109 [2 of 3 alive], 110, 112 (2×), 118 % of control [2 of 3 alive] | survivor count [2]: 0 of 3, 3 of 6, 2 of 3, 4 of 6, 5 of 6, 3 of 3, 6 of 6 (2×) | survivor count (dose: 200.0 mg/kg/injection, schedule: Q01DX009 (ip), vehicle: water): 0 of 6 | survivor count (dose: 200.0 mg/kg/injection, schedule: Q01DX009 (oral), vehicle: water): 3 of 6 | T/C (dose: 200.0 mg/kg/injection, schedule: Q04DX002 (ip), vehicle: Klucel (hydroxypropylcellulose) (HPC), evaluated on day 30): 87 (2×), 88, 90, 95 (2×), 96, 98, 99 [5 of 6 alive], 100 (2×), 101, 102 (2×), 103, 104, 105 (2×), 106, 107, 109, 110 (3×), 111, 112 (2×), 120 [5 of 6 alive], 144 % of control [2 of 3 alive] | T/C (dose: 200.0 mg/kg/injection, schedule: Q04DX002 (ip), vehicle: Klucel (hydroxypropylcellulose) (HPC), evaluated on day 35): 102 % of control | survivor count (dose: 200.0 mg/kg/injection, schedule: Q04DX002 (ip), vehicle: Klucel (hydroxypropylcellulose) (HPC)): 2 of 3 and 6 of 6 | T/C (dose: 200.0 mg/kg/injection, schedule: Q04DX003 (ip), vehicle: Klucel (hydroxypropylcellulose) (HPC), evaluated on day 30): 86, 87, 89, 94, 95, 96 (2×), 98, 99, 99 [4 of 6 alive], 99 [5 of 6 alive], 100 (3×), 100 [2 of 3 alive], 101, 102, 103, 104, 106, 106 [2 of 3 alive], 108, 112, 116, 117, 120, 142 % of control | T/C (dose: 200.0 mg/kg/injection, schedule: Q04DX003 (ip), vehicle: Klucel (hydroxypropylcellulose) (HPC), evaluated on day 35): 111 % of control | survivor count (dose: 200.0 mg/kg/injection, schedule: Q04DX003 (ip), vehicle: Klucel (hydroxypropylcellulose) (HPC)): 3 of 6 and 3 of 3 | survivor count (dose: 256.0 mg/kg/injection, schedule: Q01DX009 (ip), vehicle: saline): 5 of 10 | survivor count (dose: 256.0 mg/kg/injection, schedule: Q01DX009 (oral), vehicle: saline): 8 of 10 | survivor count (dose: 256.0 mg/kg/injection, schedule: Q08DX002 (ip), vehicle: saline): 10 of 10 | T/C [3]: 91 [5 of 6 alive], 93 [2 of 3 alive], 110 % of control | survivor count [3]: 0 of 3, 0 of 6, 1 of 6, 1 of 3, 2 of 6 | survivor count (dose: 400.0 mg/kg/injection, schedule: Q01DX009 (oral), vehicle: water): 0 of 6 | T/C [4]: 99 and 99 % of control [5 of 6 alive] | survivor count [4]: 0 of 3, 0 of 6 (2×), 1 of 6, 1 of 3, 2 of 6, 3 of 6 | T/C [5]: 87 [2 of 3 alive] and 90 % of control [4 of 6 alive] | survivor count [5]: 0 of 3, 0 of 6 (2×), 1 of 6, 1 of 3, 2 of 6, 3 of 6, 2 of 3 | survivor count (dose: 512.0 mg/kg/injection, schedule: Q01DX001 (ip), vehicle: saline): 6 of 10 | survivor count (dose: 512.0 mg/kg/injection, schedule: Q01DX001 (oral), vehicle: saline): 5 of 10 | survivor count (dose: 512.0 mg/kg/injection, schedule: Q01DX009 (oral), vehicle: saline): 0 of 10 | survivor count (dose: 512.0 mg/kg/injection, schedule: Q04DX003 (ip), vehicle: saline): 0 of 10 | survivor count (dose: 512.0 mg/kg/injection, schedule: Q08DX002 (ip), vehicle: saline): 4 of 10 | survivor count (dose: 1024.0 mg/kg/injection, schedule: Q01DX001 (oral), vehicle: saline): 0 of 10
